Laboratory results from publication PMC6288613, “Mouse REC114 is essential for meiotic DNA double-strand break formation and forms a complex with MEI4” (Life Science Alliance, 2018).
Results are given in words; binding and its absence hold for the method and conditions named. For some assays here: In cells and extracts the contact can be indirect. Some binding calls cover weakened binding; strength is not graded here. For some assays here: Sequences can lack the tags named with a protein. Blank lines part the entries; values can stand above or below the binder they belong to.

What was measured:
[1] = molecular target: T1, MEI4 (mouse, endogenous in testis) (mouse (endogenous in testis)), Q8BRM6; assay: co-IP; anti-MEI4 antibody cross-linked to Dynabeads Protein A; 3.6 mg total testis extract from 14 dpp mice (WT, Mei4-/-, Spo11-/-, Rec114-/-), 4°C overnight; washes with 20 mM Tris-HCl pH 7.5, 0.05% NP-40, 0.1% Tween-20, 10% glycerol, 150 mM NaCl; Western blot; details: remark: other sources report otherwise
T1 chain: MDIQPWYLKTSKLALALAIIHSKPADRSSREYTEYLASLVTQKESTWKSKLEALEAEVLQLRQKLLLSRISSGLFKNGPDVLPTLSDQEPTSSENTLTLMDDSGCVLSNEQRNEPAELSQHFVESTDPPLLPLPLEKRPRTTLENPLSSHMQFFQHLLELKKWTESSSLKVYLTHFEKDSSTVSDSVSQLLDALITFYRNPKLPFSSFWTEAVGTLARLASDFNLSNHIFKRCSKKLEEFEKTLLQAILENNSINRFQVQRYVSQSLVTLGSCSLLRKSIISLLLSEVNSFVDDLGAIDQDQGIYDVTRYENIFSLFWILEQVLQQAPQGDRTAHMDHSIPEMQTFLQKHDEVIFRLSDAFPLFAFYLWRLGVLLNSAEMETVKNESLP

[2] = molecular target: T2, Strep-REC114 full length (mouse) (UniProt Q9CWH4); assay: pull-down; Strep-tag pull-down: Strep-REC114 variants co-expressed with His-MEI4 (1-127) in bacteria, held on Strep-Tactin XT resin; 20 mM Tris pH 7.0, 200 mM NaCl, 5 mM mercaptoethanol; eluted with 50 mM biotin; SDS-PAGE with Coomassie and anti-His Western blot
T2 sequence: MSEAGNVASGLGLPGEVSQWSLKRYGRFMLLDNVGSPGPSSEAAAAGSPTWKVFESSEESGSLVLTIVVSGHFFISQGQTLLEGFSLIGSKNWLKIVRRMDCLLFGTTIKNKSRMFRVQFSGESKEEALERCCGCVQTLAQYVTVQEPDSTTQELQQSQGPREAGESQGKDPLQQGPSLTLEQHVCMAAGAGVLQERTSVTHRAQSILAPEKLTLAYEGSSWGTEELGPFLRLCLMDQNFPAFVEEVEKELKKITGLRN

[3] = molecular target: T3, Strep-REC114 (203-254) (mouse) (UniProt Q9CWH4); assay: as above
T3 sequence: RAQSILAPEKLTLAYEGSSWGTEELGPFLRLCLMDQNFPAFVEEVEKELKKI

[4] = molecular target: T3, Strep-REC114 (203-254) (mouse); assay: SEC; Superdex 200 gel filtration of the co-expressed, co-purified complex (Strep-Tactin resin, TEV cleavage of the His-tag of MEI4, Ni2+ column passage); peak fractions on SDS-PAGE; both purified
[5] = molecular target: T4, MEI4 (mouse, endogenous in testis) (mouse (endogenous in testis)) (UniProt Q8BRM6); assay: co-IP; anti-MEI4 antibody cross-linked to Dynabeads Protein A; 3.6 mg total testis extract from 14 dpp mice (WT, Mei4-/-, Spo11-/-, Rec114-/-), 4°C overnight; washes with 20 mM Tris-HCl pH 7.5, 0.05% NP-40, 0.1% Tween-20, 10% glycerol, 150 mM NaCl; Western blot
T4 sequence: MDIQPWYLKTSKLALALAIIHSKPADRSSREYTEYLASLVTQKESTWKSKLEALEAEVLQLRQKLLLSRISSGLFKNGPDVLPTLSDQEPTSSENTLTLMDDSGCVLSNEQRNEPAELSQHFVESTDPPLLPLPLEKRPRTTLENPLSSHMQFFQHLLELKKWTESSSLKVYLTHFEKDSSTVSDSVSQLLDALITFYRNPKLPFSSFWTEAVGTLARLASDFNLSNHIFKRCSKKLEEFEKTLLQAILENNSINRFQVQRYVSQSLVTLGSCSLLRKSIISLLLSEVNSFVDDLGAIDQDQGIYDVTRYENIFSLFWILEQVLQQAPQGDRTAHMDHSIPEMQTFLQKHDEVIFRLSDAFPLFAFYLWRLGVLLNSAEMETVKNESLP

binding [1]: binds
B1: IHO1 (mouse, endogenous in testis), Q6PDM4 1-574 (protein)
chain: MNFNVWNVKEMLSIPSGSGITKPSNWNNNQTDCSLSDSQFLFGSQFCPENSETLLPSLDAGACLRHPKQTQQNSVDSEPSIFIKYQAKPQLLGGDTKDESLFSLPLPVGKSKGLSKQFEEKKRRATDQSDSETLHSFVSHFPEVINKLQTSVEKTEENLSSRSQSILDSVETIAKTFQETARVQHDLMVESVRDKGSMEQAILEIQRTCAARQAEFMEMKSTLKNLEVLVVEQTKNLQQFCDNLSQLIVPGILEELKKFTSVPQVAGHLKDSTSQTSPSLTQSLHFTRQEKHPSEEPATWQAQEAPAGNPSTSSQRPGECGVWDEGAESGVFQKAALPTDGLHRGDGHVKNKTVPTYCKNWVMTTRSVSNHFSNLPSQRAGNGQGLMAQGASQRDVSKFEARVKNACPEYGPQSMCSFDSLEQSATEQKGRPCRKRRRGKKQQPQRSKRGGLLDRKQGQTSKAACAFIARHHCPQSPVCDPQGPLICWLTPRSSTKSTCHILGGTGETSQTARAAQGNLVQHSQRSSTDSSSQGDQQINWFSDLSLENLEPPQCKKGGTNLLCDPDFDSSDDNF

binding [2]: binds
binding [3]: binds
B2: His-MEI4 (1-127) (domain or fragment, UniProt Q8BRM6 1-127)
chain: MDIQPWYLKTSKLALALAIIHSKPADRSSREYTEYLASLVTQKESTWKSKLEALEAEVLQLRQKLLLSRISSGLFKNGPDVLPTLSDQEPTSSENTLTLMDDSGCVLSNEQRNEPAELSQHFVESTD

binding [4]: binds
B3: MEI4 (1-127), His-tag removed (domain or fragment, UniProt Q8BRM6 1-127)
chain: MDIQPWYLKTSKLALALAIIHSKPADRSSREYTEYLASLVTQKESTWKSKLEALEAEVLQLRQKLLLSRISSGLFKNGPDVLPTLSDQEPTSSENTLTLMDDSGCVLSNEQRNEPAELSQHFVESTD

binding [5]: binds
B4: REC114 (mouse, endogenous in testis) (protein, UniProt Q9CWH4 1-259)
chain: MSEAGNVASGLGLPGEVSQWSLKRYGRFMLLDNVGSPGPSSEAAAAGSPTWKVFESSEESGSLVLTIVVSGHFFISQGQTLLEGFSLIGSKNWLKIVRRMDCLLFGTTIKNKSRMFRVQFSGESKEEALERCCGCVQTLAQYVTVQEPDSTTQELQQSQGPREAGESQGKDPLQQGPSLTLEQHVCMAAGAGVLQERTSVTHRAQSILAPEKLTLAYEGSSWGTEELGPFLRLCLMDQNFPAFVEEVEKELKKITGLRN
